Source: article doi:10.1101/2020.09.01.275982
Results are given in words; binding and its absence hold for the method and conditions named. Some results given as binding are weak or reduced against the parent protein; the word gives no strength.

How the values were obtained:
FtsW (E. coli) = target: T1, FtsW (E. coli) (UniProt P0ABG4); assay: two-hybrid
T1 sequence: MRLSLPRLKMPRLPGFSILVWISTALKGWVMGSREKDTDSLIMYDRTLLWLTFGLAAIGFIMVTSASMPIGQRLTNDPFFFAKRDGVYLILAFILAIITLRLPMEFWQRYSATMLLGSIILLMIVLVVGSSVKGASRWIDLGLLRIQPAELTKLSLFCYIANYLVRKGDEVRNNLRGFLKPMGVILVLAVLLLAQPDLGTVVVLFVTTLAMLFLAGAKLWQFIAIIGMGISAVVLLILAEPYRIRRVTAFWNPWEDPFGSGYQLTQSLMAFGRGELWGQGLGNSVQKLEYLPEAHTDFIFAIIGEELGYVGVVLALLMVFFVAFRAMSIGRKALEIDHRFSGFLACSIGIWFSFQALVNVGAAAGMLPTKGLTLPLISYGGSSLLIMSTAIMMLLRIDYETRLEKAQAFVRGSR

FtsI (E. coli) = target: T2, FtsI (E. coli) (UniProt P0AD68); assay: two-hybrid
T2 sequence: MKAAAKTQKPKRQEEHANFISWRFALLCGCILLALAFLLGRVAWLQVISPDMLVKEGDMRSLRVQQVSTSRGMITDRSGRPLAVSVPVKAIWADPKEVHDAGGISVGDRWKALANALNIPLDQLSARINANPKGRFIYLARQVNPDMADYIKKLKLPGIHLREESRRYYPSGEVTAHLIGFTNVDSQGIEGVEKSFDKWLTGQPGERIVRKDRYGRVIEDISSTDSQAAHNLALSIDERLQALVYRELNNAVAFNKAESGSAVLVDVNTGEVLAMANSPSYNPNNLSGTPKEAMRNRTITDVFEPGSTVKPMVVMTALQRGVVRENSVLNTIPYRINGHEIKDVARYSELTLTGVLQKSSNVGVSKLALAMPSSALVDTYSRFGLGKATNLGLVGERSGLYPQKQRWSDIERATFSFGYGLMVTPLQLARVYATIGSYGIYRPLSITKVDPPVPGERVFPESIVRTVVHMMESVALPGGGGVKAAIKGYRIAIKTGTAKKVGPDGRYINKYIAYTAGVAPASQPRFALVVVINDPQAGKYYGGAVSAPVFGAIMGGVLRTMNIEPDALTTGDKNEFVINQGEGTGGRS

B1: FtsL^Δ1-30/G92D/E88K (domain or fragment, UniProt P0AEN4 30-121)
chain: DDLLRFGKLPLCLFICIILTAVTVVTTAHHTRLLTAQREQLVLERDALDIEWRNLILEKNALDDHSRVERIATEKLQMQHVDPSQENIVVQK
For B1, the binding (FtsW (E. coli)) was “binds weakly” and the binding (FtsI (E. coli)) was “binds”.

B2: FtsL^Δ1-30 with the two activation mutations and ftsL^E87K (domain or fragment, UniProt P0AEN4 30-121)
chain: DDLLRFGKLPLCLFICIILTAVTVVTTAHHTRLLTAQREQLVLERDALDIEWRNLILKKNALDDHSRVERIATEKLQMQHVDPSQENIVVQK
With B2 the binding (FtsW (E. coli)) was “no binding” and the binding (FtsI (E. coli)) was “no binding”.

B3: FtsL^Δ1-30 (domain or fragment, UniProt P0AEN4 30-121)
chain: DDLLRFGKLPLCLFICIILTAVTVVTTAHHTRLLTAQREQLVLERDALDIEWRNLILEENALGDHSRVERIATEKLQMQHVDPSQENIVVQK
In the case of B3, the binding (FtsW (E. coli)) is reported as “no binding” and the binding (FtsI (E. coli)) is reported as “no binding”.

B4: FtsL (protein, UniProt P0AEN4 1-121)
chain: MISRVTEALSKVKGSMGSHERHALPGVIGDDLLRFGKLPLCLFICIILTAVTVVTTAHHTRLLTAQREQLVLERDALDIEWRNLILEENALGDHSRVERIATEKLQMQHVDPSQENIVVQK
With B4 the binding (FtsW (E. coli)) was “binds” and the binding (FtsI (E. coli)) was “binds”.
